The target in this assay is rat ROBO1 lacking the CC3 domain, GFP tagged (rat) (UniProt O55005). Kind of assay: co-IP; GFP immunoprecipitation (anti-GFP, protein A/G magnetic beads) from ROBO1/2 siRNA silenced HUVECs transduced with adenoviral ROBO1WT-GFP or ROBO1ΔCC3-GFP; lysis in 50 mM Tris-HCl pH 7.4, 50 mM NaCl, 0.5% Triton X-100; western blot; beads alone as control. For orientation: A western blot detects proteins with antibodies after separation by electrophoresis.

Amino acid sequences for entries named in this document (tags omitted). A change or cut given only in a name is not applied to a line headed by its entry. Residues count along the entry.
UniProt O55005: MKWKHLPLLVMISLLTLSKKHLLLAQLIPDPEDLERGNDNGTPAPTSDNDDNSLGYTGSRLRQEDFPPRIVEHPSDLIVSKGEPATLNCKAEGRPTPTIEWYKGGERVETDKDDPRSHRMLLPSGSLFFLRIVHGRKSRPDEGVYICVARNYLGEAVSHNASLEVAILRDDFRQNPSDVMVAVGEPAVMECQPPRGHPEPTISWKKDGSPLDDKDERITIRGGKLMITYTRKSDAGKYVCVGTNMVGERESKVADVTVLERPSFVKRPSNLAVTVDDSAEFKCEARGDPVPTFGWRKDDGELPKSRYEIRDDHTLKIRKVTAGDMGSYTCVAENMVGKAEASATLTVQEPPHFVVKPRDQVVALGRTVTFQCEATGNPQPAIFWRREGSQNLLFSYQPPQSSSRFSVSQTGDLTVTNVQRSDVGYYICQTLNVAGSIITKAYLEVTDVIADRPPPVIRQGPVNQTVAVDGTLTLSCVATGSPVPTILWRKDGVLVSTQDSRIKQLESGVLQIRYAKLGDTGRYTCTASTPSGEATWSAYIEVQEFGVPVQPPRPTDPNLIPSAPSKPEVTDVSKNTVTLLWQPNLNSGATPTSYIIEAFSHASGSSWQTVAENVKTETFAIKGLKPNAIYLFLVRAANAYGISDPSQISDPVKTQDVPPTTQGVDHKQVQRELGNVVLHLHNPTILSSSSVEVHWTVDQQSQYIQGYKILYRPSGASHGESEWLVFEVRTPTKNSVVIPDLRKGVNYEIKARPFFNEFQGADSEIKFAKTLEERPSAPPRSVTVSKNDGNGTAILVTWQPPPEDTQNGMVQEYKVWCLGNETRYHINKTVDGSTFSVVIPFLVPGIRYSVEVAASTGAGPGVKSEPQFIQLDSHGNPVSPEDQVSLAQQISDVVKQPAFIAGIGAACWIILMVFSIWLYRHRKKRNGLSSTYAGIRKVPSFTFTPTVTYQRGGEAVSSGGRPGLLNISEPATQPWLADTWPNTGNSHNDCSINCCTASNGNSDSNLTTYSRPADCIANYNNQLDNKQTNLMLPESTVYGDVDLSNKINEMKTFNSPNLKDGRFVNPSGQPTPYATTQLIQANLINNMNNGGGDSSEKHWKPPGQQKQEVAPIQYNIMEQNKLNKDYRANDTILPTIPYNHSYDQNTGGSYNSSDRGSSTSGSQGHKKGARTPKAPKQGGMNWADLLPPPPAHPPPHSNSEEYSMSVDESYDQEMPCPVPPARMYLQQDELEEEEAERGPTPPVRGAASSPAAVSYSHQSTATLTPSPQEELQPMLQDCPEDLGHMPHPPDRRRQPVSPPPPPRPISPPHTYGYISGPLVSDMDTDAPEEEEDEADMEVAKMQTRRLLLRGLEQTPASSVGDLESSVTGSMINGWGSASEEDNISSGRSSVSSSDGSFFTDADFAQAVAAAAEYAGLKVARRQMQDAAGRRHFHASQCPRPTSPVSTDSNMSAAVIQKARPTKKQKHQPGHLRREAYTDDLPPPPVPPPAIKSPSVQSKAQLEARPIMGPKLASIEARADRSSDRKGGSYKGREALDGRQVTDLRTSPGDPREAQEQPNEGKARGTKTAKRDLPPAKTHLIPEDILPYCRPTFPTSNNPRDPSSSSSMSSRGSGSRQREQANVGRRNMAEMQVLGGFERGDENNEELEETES
UniProt P35968, residues 20-1356: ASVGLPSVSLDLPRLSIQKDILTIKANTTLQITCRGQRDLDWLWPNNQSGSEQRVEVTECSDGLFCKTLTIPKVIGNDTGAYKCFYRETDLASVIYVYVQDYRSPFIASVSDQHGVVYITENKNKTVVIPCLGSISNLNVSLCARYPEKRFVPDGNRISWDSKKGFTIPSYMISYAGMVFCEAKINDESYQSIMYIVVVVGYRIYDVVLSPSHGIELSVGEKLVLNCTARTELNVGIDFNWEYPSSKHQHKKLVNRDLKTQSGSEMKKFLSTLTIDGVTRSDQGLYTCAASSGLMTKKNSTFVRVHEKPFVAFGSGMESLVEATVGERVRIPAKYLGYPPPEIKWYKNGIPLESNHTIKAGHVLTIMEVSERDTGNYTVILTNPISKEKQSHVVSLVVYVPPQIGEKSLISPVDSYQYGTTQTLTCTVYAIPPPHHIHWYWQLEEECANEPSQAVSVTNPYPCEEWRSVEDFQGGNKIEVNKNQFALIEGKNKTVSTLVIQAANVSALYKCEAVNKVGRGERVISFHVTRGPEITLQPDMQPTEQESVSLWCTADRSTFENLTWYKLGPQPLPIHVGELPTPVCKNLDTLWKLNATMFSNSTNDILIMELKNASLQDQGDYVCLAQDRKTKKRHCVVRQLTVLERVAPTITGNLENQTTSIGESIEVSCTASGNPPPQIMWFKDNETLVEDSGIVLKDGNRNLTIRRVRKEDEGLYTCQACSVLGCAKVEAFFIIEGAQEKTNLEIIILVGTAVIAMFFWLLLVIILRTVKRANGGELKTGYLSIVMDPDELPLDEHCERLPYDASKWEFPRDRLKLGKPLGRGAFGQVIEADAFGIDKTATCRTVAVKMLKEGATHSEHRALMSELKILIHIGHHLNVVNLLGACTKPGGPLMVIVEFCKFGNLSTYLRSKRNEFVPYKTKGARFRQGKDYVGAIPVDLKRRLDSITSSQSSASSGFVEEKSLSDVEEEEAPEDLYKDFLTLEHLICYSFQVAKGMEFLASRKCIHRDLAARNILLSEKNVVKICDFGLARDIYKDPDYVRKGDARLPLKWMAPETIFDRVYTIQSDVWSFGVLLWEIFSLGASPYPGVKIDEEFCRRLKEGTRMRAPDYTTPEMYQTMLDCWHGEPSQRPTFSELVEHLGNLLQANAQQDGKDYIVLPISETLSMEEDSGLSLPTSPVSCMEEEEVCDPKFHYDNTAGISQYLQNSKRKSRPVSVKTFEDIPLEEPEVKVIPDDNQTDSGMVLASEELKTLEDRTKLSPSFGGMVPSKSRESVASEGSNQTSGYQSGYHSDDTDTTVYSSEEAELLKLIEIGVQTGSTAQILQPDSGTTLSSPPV

These are yes or no findings as the source states them, for the method shown. In cells and extracts the contact can be indirect. A result given as binding can be weak or reduced; the word gives no strength.

Regarding “VEGF receptor 2 (from UniProt P35968 20-1356)”, the binding entry was “binds”.

Values taken from paper PMC6538628.
